± gives the standard deviation of the averaged measurements. The effect of the compound repeats well; differences between the knockouts mostly do not.
Tested on: SKBR3
Experiment: relative cell number vs DMSO control (72 h) (% of DMSO); higher = less growth inhibition (more cells)
Description: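 QMAP-Seq: a pool of 5 breast cancer cell lines (ZR-75-1, SKBR3, HCC-38, MDA-MB-231, BT-20), each carrying 12 doxycycline-inducible Cas9 sgRNA perturbations (11 knockouts plus non-targeting sgNT), was treated with compounds for 72 h at four 10-fold doses (10 nM-10 uM or 1 nM-1 uM range). Barcodes were amplified and sequenced, and cell number was interpolated from 293T spike-in standard curves. The result is expressed as % of the median of DMSO wells. Two biological replicates.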

COc1cccc2cc(-c3nc([C@H]4CC[C@H](C(=O)O)CC4)n4ncnc(N)c34)[nH]c12 [OSI027]
Details	relative cell number
sgRNA knockout: sgATF3, 10 nM	94.7 ± 9.3
sgRNA knockout: sgATF3, 100 nM	125 ± 20
sgRNA knockout: sgATF3, 1000 nM	68 ± 2.3
sgRNA knockout: sgATF3, 10000 nM	31.4 ± 3.7
sgRNA knockout: sgATF4, 10 nM	90.2 ± 4.8
sgRNA knockout: sgATF4, 100 nM	110 ± 28
sgRNA knockout: sgATF4, 1000 nM	60.2 ± 4.7
sgRNA knockout: sgATF4, 10000 nM	39.1 ± 0.44
sgRNA knockout: sgATF6, 10 nM	73.4 ± 11
sgRNA knockout: sgATF6, 100 nM	67.7 ± 26
sgRNA knockout: sgATF6, 1000 nM	55.9 ± 1.2
sgRNA knockout: sgATF6, 10000 nM	35.6 ± 15
sgRNA knockout: sgATG7, 10 nM	114 ± 14
sgRNA knockout: sgATG7, 100 nM	95.5 ± 30
sgRNA knockout: sgATG7, 1000 nM	47.4 ± 0.71
sgRNA knockout: sgATG7, 10000 nM	40.3 ± 4.4
sgRNA knockout: sgERN1, 10 nM	96 ± 18
sgRNA knockout: sgERN1, 100 nM	98 ± 1.7
sgRNA knockout: sgERN1, 1000 nM	63.9 ± 9.6
sgRNA knockout: sgERN1, 10000 nM	43.8 ± 4.2
sgRNA knockout: sgHSF1, 10 nM	94.4 ± 7
sgRNA knockout: sgHSF1, 100 nM	92.2 ± 39
sgRNA knockout: sgHSF1, 1000 nM	61.3 ± 31
sgRNA knockout: sgHSF1, 10000 nM	36.9 ± 9.4
sgRNA knockout: sgHSF2, 10 nM	79.1 ± 2.4
sgRNA knockout: sgHSF2, 100 nM	92.3 ± 1.2
sgRNA knockout: sgHSF2, 1000 nM	54.5 ± 13
sgRNA knockout: sgHSF2, 10000 nM	34.4 ± 6.7
sgRNA knockout: sgKEAP1, 10 nM	93.7 ± 2.4
sgRNA knockout: sgKEAP1, 100 nM	97.5 ± 3.9
sgRNA knockout: sgKEAP1, 1000 nM	55.4 ± 8.7
sgRNA knockout: sgKEAP1, 10000 nM	38.9 ± 7.1
sgRNA knockout: sgNFE2L2, 10 nM	91.3 ± 26
sgRNA knockout: sgNFE2L2, 100 nM	101 ± 24
sgRNA knockout: sgNFE2L2, 1000 nM	59.4 ± 9.6
sgRNA knockout: sgNFE2L2, 10000 nM	39.6 ± 5.7
sgRNA knockout: sgSLC35F2, 10 nM	81.3 ± 1.7
sgRNA knockout: sgSLC35F2, 100 nM	86.3 ± 28
sgRNA knockout: sgSLC35F2, 1000 nM	51.7 ± 2.7
sgRNA knockout: sgSLC35F2, 10000 nM	39.8 ± 12
sgRNA knockout: sgXBP1, 10 nM	79.6 ± 15
sgRNA knockout: sgXBP1, 100 nM	107 ± 20
sgRNA knockout: sgXBP1, 1000 nM	55.6 ± 1.9
sgRNA knockout: sgXBP1, 10000 nM	33.4 ± 11

Reference: the supplement of paper PMC7661543
